PubChem BioAssay AID504444 (National Center for Advancing Translational Sciences (NCATS), 2011)
About 7,500 (2.1%) of roughly 360,000 compounds were called active. Inconclusive results, whose numbers are uncertain, are shown with a selection of clear calls. Calls follow the shape of the dose curve; as a rule, active = well fitted inhibition curve with a large enough effect; inconclusive = small, poorly fitted or top-dose-only effect, or effect the other way; inactive = flat fitted curve, though single readings scatter. Where the call is inconclusive, the potency comes from a doubtful curve fit.

assay: Nrf2 qHTS screen for inhibitors; details: A549 ARE-Fluc reporter, luciferase luminescence, 18-24 h; series mostly up to 46 µM; also: nearly all actives have a fitted effect of over 60% in size
In short: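 Quantitative HTS in A549 cells stably bearing an antioxidant response element-firefly luciferase construct. Inhibition of Nrf2-driven transcription was scored by luminescence after 18-24 h of compound exposure at 37 °C.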
Potency is read from the fitted curve at half-maximal effect.

SMILES | Potency
C=CCn1c(COc2cccc3ccc(C)nc23)nnc1SCC(N)=O | inconclusive: 9.2 µM [activator, partial curve, poor fit]
c1ccn2c(SCc3cn4ccsc4n3)nnc2c1 | inconclusive: 10 µM [activator, partial curve, poor fit]
CCCCCCCCCCOC(=O)Cn1c(COc2ccc(Cl)cc2)[n+](C)c2ccccc21 | inactive
COc1ccc2cc(S(=O)(=O)N3CCCCC3)ccc2c1S(=O)(=O)N1CCCCC1 | active: 16.4 µM
Cc1cccnc1NC(=S)Nc1ccc(Cl)c(Cl)c1 | inconclusive: 9.2 µM [activator, partial curve]
CC(NC(=O)CCCCCNC(=O)N1CCn2c1nc1ccccc12)c1ccccc1 (centres undefined) | inactive
Nc1nccc(-c2cc(-c3ccc(Cl)cc3Cl)no2)n1 | inconclusive: 2.59 µM [activator, full curve]
COc1ccc2c(c1)c1nnc(SCC(=O)N3C(C)CCCC3C)nc1n2C (centres undefined) | inconclusive: 25.9 µM [falling, partial curve, poor fit]
COc1ccccc1C(=O)COC(=O)Cc1c[nH]c2ccccc12 | inconclusive: 3.66 µM [activator, full curve]
O=C(O)c1ccc(NS(=O)(=O)c2cccc(S(=O)(=O)c3ccc(Cl)c(Cl)c3)c2)cc1 | inactive
CCOC(=O)C(=NC1CCS(=O)(=O)C1)NNc1ccc(Br)cc1 (centres undefined) | inactive
Cc1ccc2nc(N3CC(C)OC(C)C3)nc(-c3ccccc3)c2c1 (centres undefined) | inconclusive: 3.26 µM [activator, full curve, poor fit]
C=CCN=C1NN=C(c2cc(C)n(CC=C)c2C)CS1 | inconclusive: 29.1 µM [falling, single point]
O=C(Nc1ccccc1Br)c1ccc2nccnc2c1 | inconclusive: 9.2 µM [activator, partial curve]
CC1=C(C(=O)OC(C)C)C(c2ccc(F)cc2)NC(=O)N1 (centres undefined) | inconclusive: 0.103 µM [falling, full curve, poor fit]
CC(=O)c1c(N2CCN(C)CC2)[nH]c(-c2ccccc2)nc1=S | inconclusive: 13 µM [activator, partial curve, poor fit]
Cc1c(C)[n+](=O)c2c(n1[O-])C(Br)CCC2Br (centres undefined) | inconclusive: 2.59 µM [activator, partial curve, poor fit]
CCNC(=O)CN(C1CCCCC1)S(=O)(=O)c1ccc(F)cc1 | inconclusive: 4.11 µM [falling, full curve, poor fit]
N#Cc1cc[n+](CC(=O)c2ccc(NC(=O)c3ccccc3)cc2)cc1 | inactive
Clc1ccc(-n2nnnc2Sc2ncnc3sccc23)cc1 | inactive
CCc1ccc2nc(NC(=O)CCCc3cccs3)sc2c1 | inconclusive: 6.51 µM [activator, partial curve]
CCn1ccnc1CN(C)Cc1nc(-c2cccc(Cl)c2)no1 | inconclusive: 1.64 µM [activator, full curve]

Part of the list above in order of number of heavy atoms, high to low.
SMILES | Potency
CCCCCCCCCCOC(=O)Cn1c(COc2ccc(Cl)cc2)[n+](C)c2ccccc21 | inactive
C=CCn1c(COc2cccc3ccc(C)nc23)nnc1SCC(N)=O | inconclusive: 9.2 µM [activator, partial curve, poor fit]
CCOC(=O)C(=NC1CCS(=O)(=O)C1)NNc1ccc(Br)cc1 (centres undefined) | inactive

Next part

SMILES | Potency
Cc1ccc(C)c(Nc2ncccc2C(=O)NCc2cccs2)c1 | inconclusive: 23.1 µM [falling, partial curve, poor fit]
CCC(C)N(C(=O)CSc1ncnc2sccc12)C1CCS(=O)(=O)C1 (centres undefined) | inactive
CCc1ccccc1Nc1cc(C(=O)NC(C)c2ccccc2)c2ccccc2n1 (centres undefined) | inconclusive: 29.1 µM [falling, single point]
Cc1ccc(NC(=O)O/N=C/c2c(C)nn(C(C)(C)C)c2C)cc1Cl | active: 0.326 µM
COc1ccc(C(=O)NCCCc2ccccc2)cc1 | inconclusive: 4.61 µM [activator, full curve, poor fit]
CCOC(=O)c1ccccc1NC(=O)N1CCC(CN2CCCCC2)CC1 | inconclusive: 29.1 µM [activator, single point]
CC(C)c1ccc(CNc2ccc(N3CCOCC3)cc2)cc1 | inconclusive: 18.4 µM [falling, partial curve, poor fit]
COc1ccc(CC(=O)NCC(C)(C)N2CCOCC2)cc1 | inactive
CCOC(=O)c1sc2nc(N3CCOCC3)c3c(c2c1N)CCC3 | inconclusive: 0.82 µM [falling, full curve, poor fit]
CCNC(=O)NCCc1c[nH]c2ccc(Cl)cc12 | inconclusive: 20.6 µM [falling, partial curve]
COc1ccc(-n2nnnc2S(=O)(=O)CC(=O)N2CCCCC2)cc1 | active: 25.9 µM
Cc1ccc2cc3cc(C(=O)NCCCN4CCCC4=O)oc3nc2c1 | inconclusive: 23.1 µM [falling, partial curve, poor fit]
Cc1nn(-c2ccccc2)c(C)c1/C=N/n1c(-c2ccccc2Br)n[nH]c1=S | inconclusive: 18.4 µM [falling, single point]
S=C(c1ccc(-c2ccc(Cl)cc2)o1)N1CCCCC1 | inconclusive: 2.31 µM [activator, full curve]
NC(=O)c1ccsc1NC(=O)c1ccc2c(c1)CCCC2 | inconclusive: 1.46 µM [activator, full curve]
Cc1cc(NC(=O)c2ccccc2F)on1 | inconclusive: 25.9 µM [activator, single point]
COc1ccc(C)cc1S(=O)(=O)N1CCCC(C(=O)NCc2ccccn2)C1 (centres undefined) | inactive
CN1C(=O)Cc2cc(S(=O)(=O)CCC(=O)Nc3ccc(F)c(Cl)c3)ccc21 | inconclusive: 5.17 µM [falling, single point]
Nc1nc(NCc2ccccc2)nc(NCCO)c1[N+](=O)[O-] | inconclusive: 20.6 µM [falling, single point]
CC(=O)c1c(C)[nH]c(C(=O)Nc2cccc(S(=O)(=O)N3CCOCC3)c2)c1C | inconclusive: 8.2 µM [falling, partial curve]
Cc1onc(-c2c(F)cccc2Cl)c1C(=O)OCC(=O)N1C(C)CCCC1C (centres undefined) | inconclusive: 0.82 µM [falling, full curve, poor fit]
Cc1cc2oc(C(=O)Nc3nonc3C)c(C)c2cc1Cl | inconclusive: 5.17 µM [activator, single point]
